From publication PMC7819943, “Rice protein-binding microarrays: a tool to detect cis-acting elements near promoter regions in rice” come the findings set out here.

This is one part of the list.

This assay concerns the target T1, OsSMF1 (Oryza sativa, UniProt Q6ZLB0 1-436).
T1 sequence: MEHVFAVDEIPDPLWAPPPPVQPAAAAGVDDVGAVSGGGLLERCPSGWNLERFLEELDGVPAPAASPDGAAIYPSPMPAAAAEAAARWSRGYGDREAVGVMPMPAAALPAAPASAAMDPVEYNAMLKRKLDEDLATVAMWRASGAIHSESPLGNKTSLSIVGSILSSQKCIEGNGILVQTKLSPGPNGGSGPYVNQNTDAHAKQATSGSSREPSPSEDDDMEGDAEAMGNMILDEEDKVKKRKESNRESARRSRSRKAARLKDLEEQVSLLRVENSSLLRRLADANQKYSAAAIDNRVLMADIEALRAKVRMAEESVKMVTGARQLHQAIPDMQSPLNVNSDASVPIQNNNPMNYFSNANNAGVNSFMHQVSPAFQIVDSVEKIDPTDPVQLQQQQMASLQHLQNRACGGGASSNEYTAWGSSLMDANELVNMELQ
Nature of the assay: protein-binding microarray (RPBM); PBS, 2% BSA, 51.3 ng/ul salmon testes DNA, 50 uM zinc acetate, 200 nM TF, 25 C, 1 h; high values mean tight binding. The following applies: protein: recombinant; tags: N-terminal polyhistidine and DsRed monomer fusion (pET32a); chain copies: 2; label: CyDye5-dUTP incorporated in the synthesized complementary strand; 3' TTTTT single-stranded linker to array surface; dsDNA, one strand shown. In short, it runs like this: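 Per-feature fluorescence intensity (arbitrary units), read on an Axon 4000B scanner, is the binding signal. Transcription factors carrying an N-terminal polyhistidine tag and DsRed fusion were expressed in E. coli BL21-CodonPlus and purified on Ni–NTA. A custom Agilent array, made double-stranded by primer extension with Cy5-dUTP and blocked with 2% BSA, was incubated with 200 nM protein in PBS, 2% BSA, salmon testes DNA and 50 µM zinc acetate at 25 °C for 1 h and then washed.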
Turning to “TTCTTCGAGATCACCATGATTGAACGATCTCCGAGCTGCTCGGAGTCACCTAGTGCAG”, the binding signal was 27800 fluorescence intensity (a.u.).
Turning to “GAGGAGGGAGGCGACGTCGCCCGTCTCTCCGCGTCGGCTCCGGAGTCACCTAGTGCAG”, the binding signal is 3490 fluorescence intensity (a.u.).
In the case of “GAGTCGTCGCGGTCACTCGTCCGTATCTGCCTCGGTGGGGCGGAGTCACCTAGTGCAG”, the binding signal was 3920 fluorescence intensity (a.u.).
Take “CCGGAAGCTCCCGTTCCAGCGGCTGGTGCGGGAGATCGCGCGGAGTCACCTAGTGCAG”: the binding signal is 30900 fluorescence intensity (a.u.).
Regarding “CCAAGATTTGTGCTATGTGACGTGGAGGGTGGAGATCATCCGGAGTCACCTAGTGCAG”, the binding signal was 13700 fluorescence intensity (a.u.).
In the case of “GCCCATCCATCGCATTCGCGTTCGCAGGCACAAACCAAACCGGAGTCACCTAGTGCAG”, the binding signal is 27800 fluorescence intensity (a.u.).
For the sequence “CTTTGTATCTGACCTACTGTTGTTCTGACCAGTCTTGGCCCGGAGTCACCTAGTGCAG”, the binding signal is 3720 fluorescence intensity (a.u.).
For the sequence “ACCATTGGCCTCGCCGCTCACGCGCACCAGCGTCCCACACCGGAGTCACCTAGTGCAG”, the binding signal is 31000 fluorescence intensity (a.u.).
On to “ACGTCCACCTCCGCATCGGCCCCTACGTCTGCGCCGAGTGCGGAGTCACCTAGTGCAG”, for which the binding signal was 3980 fluorescence intensity (a.u.).
As for “TAAATGCTACAGTAACCCACATGTGCTAATGATGGATTAACGGAGTCACCTAGTGCAG”, the binding signal was 29600 fluorescence intensity (a.u.).
Consider “AACGTCGTCGCAGGTGTTTGCTGCGCGCGACGTAGCCATCCGGAGTCACCTAGTGCAG”, for which the binding signal was 32700 fluorescence intensity (a.u.).
Regarding “AACGGTGCCTTCTGTTGCTGACCCGATCTGGCGACGCAACCGGAGTCACCTAGTGCAG”, the binding signal is 3850 fluorescence intensity (a.u.).
The value for “CATGGTGATGATGGCGGCGGGCGTCCGTCAGCGCCCGCACCGGAGTCACCTAGTGCAG” was 5860 fluorescence intensity (a.u.).
Turning to “TTTAACGGCGGTTGACTAACGGTTGACTAACGTCGATTGCCGGAGTCACCTAGTGCAG”, the binding signal is 3380 fluorescence intensity (a.u.).
Take “CCTCCTGCTCAGAGGCAGTTCGGTGACGAGCGGGTTGGAGCGGAGTCACCTAGTGCAG”: the binding signal is 24400 fluorescence intensity (a.u.).
Regarding “TGTGATACTGACATGTGGGGCCACGTGGGTCCCATAATTTCGGAGTCACCTAGTGCAG”, the binding signal was 7110 fluorescence intensity (a.u.).
For “TTTATTTAGTTTGTCAGACTAACTGGTATTGACACGACTGCGGAGTCACCTAGTGCAG”, the binding signal was 4840 fluorescence intensity (a.u.).
Turning to “GCGACGCGAGCGAAGATTTTGATTTTGACCCGCCTCCAACCGGAGTCACCTAGTGCAG”, the binding signal is 19500 fluorescence intensity (a.u.).
As to “TCACTGGCCTCTACATCCTCCAACCACTCCGTCGGCTTCCCGGAGTCACCTAGTGCAG”, the binding signal is 19900 fluorescence intensity (a.u.).
With “TTGTACTAATAATAATACAATAAACTAACAATTCAGCGATCGGAGTCACCTAGTGCAG”, the binding signal is 3560 fluorescence intensity (a.u.).
The value for “TTGCCACTCGTTATCTATGACATATGGGTCCTTATGTGTCCGGAGTCACCTAGTGCAG” was 3390 fluorescence intensity (a.u.); that for “ATAGAAATGGAGGATGTGGCGGCATCATTGCGCCATGTACCGGAGTCACCTAGTGCAG” was 3270 fluorescence intensity (a.u.).
The same measure for “GCCGCCATCTCCCATGGCGACGACGTGGACCAACGCCTAACGGAGTCACCTAGTGCAG”: 6420 fluorescence intensity (a.u.); for “TCAATAGTACTTTAAACGTGCCGTGTATGTTTGTCTATTTCGGAGTCACCTAGTGCAG”: 4020 fluorescence intensity (a.u.); for “TCCCGCGCCGGCCGCCGTCACCTCACGCAGGCCCTGTATGCGGAGTCACCTAGTGCAG”: 3270 fluorescence intensity (a.u.).
Regarding “GCAGAGGCGGCGAGGCTCGGCTTCTTCTCGAACGGCGCCGCGGAGTCACCTAGTGCAG”, the binding signal is 27600 fluorescence intensity (a.u.).
As for “TCTCGTCTCCGTCGCCGCCGCCTTCTCCAAATCCCCTTCGCGGAGTCACCTAGTGCAG”, the binding signal is 3820 fluorescence intensity (a.u.).
As to “CGGAGGGATTCGATTTGGAAGGAATTGGATTCGGAGTTGACGGAGTCACCTAGTGCAG”, the binding signal is 33200 fluorescence intensity (a.u.).
In the case of “ATGTACGCGTCACTAAATTTTGTTGCTCCCTGTCGTCACTCGGAGTCACCTAGTGCAG”, the binding signal was 9210 fluorescence intensity (a.u.).
As to “AGGAAGGGAGAGGCCGGCCTGCTGACGTGGCATCATGACACGGAGTCACCTAGTGCAG”, the binding signal is 19900 fluorescence intensity (a.u.).
As for “TCCTCGCCAAGCAGCATGGAGGAGAGCCACGCCTTCACCACGGAGTCACCTAGTGCAG”, the binding signal was 3810 fluorescence intensity (a.u.).
The value for “ACGGCCCAGATAAAAGGATGGGACATGATAACCCGGTCTACGGAGTCACCTAGTGCAG” was 4060 fluorescence intensity (a.u.).
The value for “GACGCTGGAGTTCACGCCGACGTGGATCGTGGCGGCGGTGCGGAGTCACCTAGTGCAG” was 7560 fluorescence intensity (a.u.).
For “AAGCTGCGTCTTGCATGACAGCTTCAAGTTACACATGCTGCGGAGTCACCTAGTGCAG”, the binding signal was 3490 fluorescence intensity (a.u.).
“GCCACGCTGTGGTAGGCCGCGCCGACGTGGGCGAATCCGCCGGAGTCACCTAGTGCAG”: the binding signal was 6340 fluorescence intensity (a.u.).
In the case of “ACAAGCCAGGACCAGTAGGCCATGTATCTCTCCTAAAATTCGGAGTCACCTAGTGCAG”, the binding signal was 36000 fluorescence intensity (a.u.).
On to “CCGCCGTCCGGTGACGTGGCCTTCCTCCTCTTCCCACCGCCGGAGTCACCTAGTGCAG”, for which the binding signal is 23400 fluorescence intensity (a.u.).
The same measure for “TTCCACAATCTTTAATCTACTGTCGTCAGCCGACATGTCACGGAGTCACCTAGTGCAG”: 5800 fluorescence intensity (a.u.); for “GCAAGAGATCCGAGAAGAGCAACATAACCCACAGGCCGCTCGGAGTCACCTAGTGCAG”: 3720 fluorescence intensity (a.u.); for “TAAAACAAGTCATAATAAAATAAATAGTAATTAAAATTCTCGGAGTCACCTAGTGCAG”: 29200 fluorescence intensity (a.u.).
Turning to “GCGGCGTGGCGGTTTCCGGGCCAACGGCTGACATGTCGGCCGGAGTCACCTAGTGCAG”, the binding signal was 4930 fluorescence intensity (a.u.).
Turning to “TGATGCCGCTGACGCCTGCTTTGTCAAGGACTCAAGGTCACGGAGTCACCTAGTGCAG”, the binding signal is 4020 fluorescence intensity (a.u.).
